{
  "source": "patent US20180040391A1",
  "about": "“GAS-INSULATED MEDIUM-OR HIGH-VOLTAGE ELECTRICAL APPARATUS INCLUDING HEPTAFLUOROISOBUTYRONITRILE AND TETRAFLUOROMETHANE” (General Electric Technology GmbH, priority 2015, published 2018)",
  "data": [
    {"test": "not given", "conditions": "dilution gases; cited from earlier work", "values": [
      {"smiles": "O=C=O", "note": "[CO2, carbon dioxide, reference compound]", "GWP": 1},
      {"smiles": "N#N", "note": "[N2, nitrogen, reference compound]", "GWP": 0},
      {"smiles": "[He]", "note": "[helium]", "GWP": 0},
      {"smiles": "[N-]=[N+]=O", "note": "[nitrous oxide]", "GWP": 310},
      {"smiles": "O=O", "note": "[oxygen]", "GWP": 0}
    ]},
    {"test": "not given", "conditions": "prior-art gases; cited from earlier work", "values": [
      {"smiles": "FC(F)(F)C(F)(F)F", "note": "[C2F6]", "GWP": 9200},
      {"smiles": "FC(F)(F)C(F)(F)C(F)(F)F", "note": "[C3F8]", "GWP": 7000},
      {"smiles": "FC(F)(F)C(F)(F)C(F)(F)C(F)(F)F", "note": "[C4F10]", "GWP": 7000},
      {"smiles": "FC(F)(F)I", "note": "[CF3I, trifluoroiodomethane]", "GWP": "less than 5"},
      {"smiles": "FC(F)(F)F", "note": "[CF4, tetrafluoromethane]", "GWP": 6500},
      {"smiles": "FC1(F)C(F)(F)C(F)(F)C1(F)F", "note": "[c-C4F8]", "GWP": 8700}
    ]},
    {"test": "not given", "conditions": "relative to CO2 over 100 years, IPCC report 2013; cited from earlier work", "values": [
      {"smiles": "FS(F)(F)(F)(F)F", "note": "[SF6, sulfur hexafluoride, reference compound]", "global warming potential (GWP)": 23500}
    ]},
    {"test": "relative dielectric strength normalized relative to SF6", "type": "physicochemical", "conditions": "atmospheric pressure, DC voltage, two steel electrodes of diameter 2.54 cm spaced apart by 0.1 cm", "values": [
      {"smiles": "FC(F)(F)F", "note": "[CF4, tetrafluoromethane]", "relative dielectric strength, normalized relative to SF6": "0.4-0.5"},
      {"smiles": "N#N", "note": "[N2, nitrogen, reference compound]", "relative dielectric strength, normalized relative to SF6": "0.35-0.4"},
      {"smiles": "FS(F)(F)(F)(F)F", "note": "[SF6, sulfur hexafluoride, reference compound]", "relative dielectric strength, normalized relative to SF6": 1.0},
      {"smiles": "N#CC(F)(C(F)(F)F)C(F)(F)F", "note": "[i-C3F7CN, 2,3,3,3-tetrafluoro-2-trifluoromethyl propanenitrile]", "relative dielectric strength, normalized relative to SF6": 2.6}
    ]},
    {"test": "global warming potential (GWP)", "conditions": "Table IV, components of the mixture for −30° C.", "values": [
      {"smiles": "FC(F)(F)F", "note": "[CF4, tetrafluoromethane]", "GWP": 6500},
      {"smiles": "O=C=O", "note": "[CO2, carbon dioxide, reference compound]", "GWP": 1},
      {"smiles": "N#CC(F)(C(F)(F)F)C(F)(F)F", "note": "[i-C3F7CN, 2,3,3,3-tetrafluoro-2-trifluoromethyl propanenitrile]", "GWP": 2210}
    ]},
    {"test": "global warming potential (GWP)", "conditions": "Table V, components of the mixture for −25° C.", "values": [
      {"smiles": "FC(F)(F)F", "note": "[CF4, tetrafluoromethane]", "GWP": 6500},
      {"smiles": "O=C=O", "note": "[CO2, carbon dioxide, reference compound]", "GWP": 1},
      {"smiles": "N#CC(F)(C(F)(F)F)C(F)(F)F", "note": "[i-C3F7CN, 2,3,3,3-tetrafluoro-2-trifluoromethyl propanenitrile]", "GWP": 2210}
    ]},
    {"test": "global warming potential (GWP)", "conditions": "calculated over 100 years in accordance with the IPCC method, 2013", "values": [
      {"smiles": "FC(F)(F)F", "note": "[CF4, tetrafluoromethane]", "GWP": 6500},
      {"smiles": "N#CC(F)(C(F)(F)F)C(F)(F)F", "note": "[i-C3F7CN, 2,3,3,3-tetrafluoro-2-trifluoromethyl propanenitrile]", "GWP": 2210}
    ]}
  ]
}
